{
  "sequences": {"note": "Sequences of proteins named here, by UniProt entry; tags and fusion partners are left off. A change or cut given only in a name is not applied to a line headed by its entry.", "UniProt P18054": "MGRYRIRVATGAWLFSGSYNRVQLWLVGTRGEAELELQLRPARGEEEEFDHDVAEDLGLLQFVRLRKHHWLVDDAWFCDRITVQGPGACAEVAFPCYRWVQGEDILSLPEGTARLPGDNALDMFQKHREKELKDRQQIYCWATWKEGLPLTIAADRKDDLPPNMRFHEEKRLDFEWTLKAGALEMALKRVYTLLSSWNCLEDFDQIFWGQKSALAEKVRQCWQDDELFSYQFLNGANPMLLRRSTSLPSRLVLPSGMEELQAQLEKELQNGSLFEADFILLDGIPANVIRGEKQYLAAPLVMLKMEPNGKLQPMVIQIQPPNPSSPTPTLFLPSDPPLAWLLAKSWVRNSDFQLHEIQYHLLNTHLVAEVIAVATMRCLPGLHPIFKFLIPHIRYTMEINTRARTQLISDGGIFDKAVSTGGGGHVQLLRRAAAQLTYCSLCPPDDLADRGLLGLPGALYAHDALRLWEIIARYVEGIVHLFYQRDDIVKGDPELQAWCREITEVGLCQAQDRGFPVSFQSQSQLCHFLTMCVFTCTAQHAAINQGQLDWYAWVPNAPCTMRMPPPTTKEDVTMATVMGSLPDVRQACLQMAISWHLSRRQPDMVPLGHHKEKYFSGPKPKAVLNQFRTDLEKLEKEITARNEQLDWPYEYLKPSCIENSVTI"},
  "source": "PubChem BioAssay AID1671190",
  "about": "(National Center for Advancing Translational Sciences (NCATS), 2021)",
  "note": "Among all 580,000 compounds or so, about 6,100 (1.1%) were called active. The shares of active, inactive and inconclusive entries below differ from those in the screen. Calls come from the whole dose curve; as a rule, active = well fitted inhibition curve with a large enough effect; inconclusive = small, poorly fitted or top-dose-only effect, or another doubt; inactive = no such curve, though single readings can be large or run the other way. Potencies beside an inconclusive call are fits to weak or partial responses and may not hold up. % is set by controls: 0 for no effect and ±100 for the full control effect; potency is the fitted concentration of half-maximal effect.",
  "data": [
    {"molecular_target": "Polyunsaturated fatty acid lipoxygenase ALOX12 (Homo sapiens) (UniProt P18054)", "experiment": "Primary qHTS assay for inhibitors of human arachidonate 12S-lipoxygenase (ALOX12): Round 2", "details": "purified 12hLO, xylenol orange hydroperoxide absorbance; activity change, negative = inhibition: at 108 µM (top of the series) unless noted", "method_in_brief": "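Purified human 12hLO at 150 nM in 25 mM Hepes, 0.01% Triton X-100, pH 7.0, preincubated 15 min at room temperature with compound. Reaction started with 40 uM arachidonic acid, 30 min at room temperature. Hydroperoxide measured by Fe-xylenol orange, 573/405 nm absorbance ratio.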", "values": [
      {"smiles": "COCCN1CCC(N2CCN(S(=O)(=O)c3ccc(Cl)s3)CC2)C1=O", "note": "(stereo not given)", "activity change, negative = inhibition": "inactive: -8.59%"},
      {"smiles": "CCOC(=O)NNC(=S)NCC1CCCO1", "note": "(stereo not given)", "Potency": "active: 6.31 µM"},
      {"smiles": "CN(O)/C=N/C(=S)Nc1ccc(Cl)cc1Cl", "Potency": "inconclusive: 79.4 µM [inhibitor, partial curve, poor fit]"},
      {"smiles": "CC(=O)O[C@@H]1C[C@H]2C(C)(C)C(=O)C=C[C@]2(C)[C@H]2CC[C@@]3(C)[C@H](c4ccoc4)OC(=O)[C@H]4O[C@]43[C@@]21C", "activity change, negative = inhibition": "inactive: 8.22%"},
      {"smiles": "OCCNc1nc(Nc2ccccc2)nc(Nc2ccccc2)n1", "Potency": "inconclusive: 79.4 µM [inhibitor, single point]"},
      {"smiles": "CSCC(=O)N1CCC(n2nccc2NC(=O)c2ccc3c(c2)OCO3)CC1", "activity change, negative = inhibition": "inactive: 3.16%"},
      {"smiles": "O=C(Cn1cc(C(F)(F)F)ccc1=O)N/N=C/c1ccc(O)cc1", "activity change, negative = inhibition": "inactive: 10.8%"},
      {"smiles": "COc1cccc(NC(=S)NC(Cc2ccccc2)c2ccccc2)c1", "note": "(stereo not given)", "Potency": "active: 39.8 µM"},
      {"smiles": "CCCCN(C)CCNC(=O)c1ccc(Cn2c(=S)[nH]c3ccc(Br)cc3c2=O)cc1", "Potency": "inconclusive: 79.4 µM [inhibitor, partial curve, poor fit]"},
      {"smiles": "N#Cc1nc(-c2ccccc2F)oc1N1CCN(Cc2ccccc2)CC1", "Potency": "inconclusive: 31.6 µM [inhibitor, partial curve, poor fit]"},
      {"smiles": "C=CCN(CC=C)S(=O)(=O)c1ccc(NC(=S)NC(=O)/C=C/c2ccc(C)cc2)cc1", "Potency": "inconclusive: 28.2 µM [inhibitor, partial curve, poor fit]"},
      {"smiles": "CC(C)Cc1ccc(S(=O)(=O)NCc2nc3cccnc3n2Cc2ccccc2)cc1", "activity change, negative = inhibition": "inactive: 1.55%"},
      {"smiles": "CC(C)C[C@H]1CNC(=S)N1C[C@H]1CCCN1C[C@H](Cc1ccc(O)cc1)N1C[C@H](Cc2ccc(O)cc2)N(CC2CCCCCC2)C1=S", "Potency": "inconclusive: 44.7 µM [inhibitor, partial curve]"},
      {"smiles": "CCc1ccc(CNC(=O)c2nnn(-c3ccc(C)c(F)c3)c2C)cc1", "activity change, negative = inhibition": "inactive: -3.91%"},
      {"smiles": "CCc1ccc2c(CSc3nncn3C(C)C)cc(=O)oc2c1", "Potency": "inconclusive: 17.8 µM [inhibitor, partial curve, poor fit]"},
      {"smiles": "O=C(CCl)N(O)c1ccc(C=Cc2ccccc2)cc1", "Potency": "inconclusive: 44.7 µM [inhibitor, partial curve]"},
      {"smiles": "COc1ccc2c(-c3ccccc3)cc(SCC(=O)NCC(C)C)nc2c1", "activity change, negative = inhibition": "inactive: -4.36%"},
      {"smiles": "CCCn1c(=S)[nH]c2cc(C(=O)N3CCN(C)CC3)ccc2c1=O", "Potency": "inconclusive: 39.8 µM [inhibitor, partial curve, poor fit]"},
      {"smiles": "CN1C(=O)c2cccn2CC1CNC(=O)c1n[nH]c2ccccc12", "note": "(stereo not given)", "activity change, negative = inhibition": "inactive: 64.6%"},
      {"smiles": "Cn1c(-c2ccncc2)nc2ccccc21", "Potency": "inconclusive: 89.1 µM [inhibitor, partial curve, poor fit]"},
      {"smiles": "CCCCCOc1ccccc1CN1C(=O)C(=O)c2cc(C)ccc21", "activity change, negative = inhibition": "inactive: -25.3%"},
      {"smiles": "Cc1[nH]c2ccccc2c1C(=O)C(=O)Nc1ccccc1C(C)C", "Potency": "inconclusive: 35.5 µM [inhibitor, partial curve, poor fit]"},
      {"smiles": "O=C(CSCc1ccccc1)Nc1cc([N+](=O)[O-])ccc1F", "Potency": "inconclusive: 44.7 µM [inhibitor, partial curve, poor fit]"},
      {"smiles": "Cc1ccc2c(CSc3nnnn3C3CC3)cc(=O)oc2c1C", "Potency": "inconclusive: 31.6 µM [inhibitor, partial curve, poor fit]"},
      {"smiles": "COc1ccc(NC(=O)CC2C(=O)OCC3CCCCN32)cc1Cl", "note": "(stereo not given)", "Potency": "inconclusive: 44.7 µM [inhibitor, partial curve, poor fit]"},
      {"smiles": "O=C(CNc1cc(Cl)ccc1N1CCOCC1)Nc1ccccc1Cc1ccccc1", "Potency": "inconclusive: 126 µM [inhibitor, partial curve, poor fit]"},
      {"smiles": "Cc1cc(C)c(C#N)c(Nc2ccc(F)cc2)n1", "Potency": "inconclusive: 50.1 µM [inhibitor, partial curve, poor fit]"},
      {"smiles": "COc1ccc(NC(=O)c2c(NCc3ccc(OC)c(OC)c3OC)sc3c2CCC3)c(OC)c1", "Potency": "inconclusive: 56.2 µM [inhibitor, partial curve, poor fit]"},
      {"smiles": "Cc1cccc(C(=O)NC(c2ccc3c(c2)OCCCO3)C(C)C)n1", "note": "(stereo not given)", "Potency": "inconclusive: 89.1 µM [inhibitor, partial curve, poor fit]"},
      {"smiles": "O=[N+]([O-])c1cc([N+](=O)[O-])c2c(=Nc3ccccc3)n(-c3ccccc3)n(O)c2c1", "activity change, negative = inhibition": "inactive: 0%"},
      {"smiles": "COc1ccccc1OCCNC(=O)c1ccc2c(c1)NC(=O)CS2", "activity change, negative = inhibition": "inactive: -20.9%"},
      {"smiles": "Cc1ccc(Nc2nc(N)nc(CSc3nc(C)cc(C)n3)n2)cc1", "Potency": "inconclusive: 28.2 µM [inhibitor, partial curve, poor fit]"},
      {"smiles": "Cc1ccc(S(=O)(=O)N(CC(N)=O)Cc2c(F)cccc2Cl)cc1", "Potency": "inconclusive: 1.26 µM [inhibitor, full curve, poor fit]"},
      {"smiles": "O=C(CCc1ncc(-c2c(F)cccc2F)o1)N1CCN(S(=O)(=O)c2cc(F)ccc2F)CC1", "activity change, negative = inhibition": "inactive: 15.8%"},
      {"smiles": "COc1ccc(CN(C)C(=O)c2cccc(S(=O)(=O)N3CCCc4ccccc43)c2)c(OC)c1OC", "activity change, negative = inhibition": "inactive: -22.3%"},
      {"smiles": "CC(Oc1ccc(Cl)cc1Cl)C(=O)NC(=S)N1CCc2ccccc21", "note": "(stereo not given)", "activity change, negative = inhibition": "inactive: -22.9%"},
      {"smiles": "CCOC(=O)N/N=C/c1c[nH]c2ccccc12", "Potency": "inconclusive: 39.8 µM [inhibitor, partial curve, poor fit]"},
      {"smiles": "Cc1cccc(C(=O)N2c3ncnn3C3(CCCCC3)[C@@H]3CCCC[C@@H]32)c1", "activity change, negative = inhibition": "inactive: -28.6%"},
      {"smiles": "CC(NC(=O)c1cccc(S(=O)(=O)N2CCN(C)CC2)c1)c1ccc(Cl)cc1Cl", "note": "(stereo not given)", "Potency": "inconclusive: 44.7 µM [inhibitor, partial curve, poor fit]"},
      {"smiles": "COCCCN1C(=O)C(=O)/C(=C(/O)c2ccc3c(c2)OCCO3)C1c1ccc(C(=O)OC)cc1", "note": "(stereo not given)", "Potency": "inconclusive: 25.1 µM [inhibitor, partial curve, poor fit]"},
      {"smiles": "COc1ccccc1C(=O)N1CCC2(CC1)NC(=O)N(c1ccc(F)cc1)N2", "Potency": "inconclusive: 1.58 µM [inhibitor, full curve, poor fit]"},
      {"smiles": "O=C(CSc1nnc2ccc(-c3ccccn3)nn12)N1CCN(c2ccccc2)CC1", "activity change, negative = inhibition": "inactive: -20.6%"},
      {"smiles": "O=C1CCC(C(=O)OCc2cc(=O)oc3cc(O)ccc23)=NN1", "Potency": "inconclusive: 44.7 µM [inhibitor, partial curve, poor fit]"},
      {"smiles": "COc1ccc(S(=O)(=O)N2CCCC(C(=O)NCc3ccccn3)C2)cc1", "note": "(stereo not given)", "Potency": "inconclusive: 7.08 µM [inhibitor, full curve, poor fit]"},
      {"smiles": "Cc1cc(Br)ccc1N=C1NC(=O)CS1", "activity change, negative = inhibition": "inactive: 1.33%"},
      {"smiles": "Cc1cc(C(=O)Nc2nnc(C3CCCCC3)s2)no1", "activity change, negative = inhibition": "inactive: 23.4%"},
      {"smiles": "CC(CN1CCCC1)OC(=O)COc1ccccc1", "note": "(stereo not given)", "Potency": "inconclusive: 11.2 µM [inhibitor, partial curve, poor fit]"},
      {"smiles": "O=C1NC[C@@H](CCCCN2C[C@H](Cc3ccc(O)cc3)N(CC3CCCCC3)C(=O)C2=O)N(CCC2CCCCC2)C1=O", "Potency": "inconclusive: 44.7 µM [inhibitor, partial curve, poor fit]"},
      {"smiles": "CCN1C[C@@H]2[C@@H]3C(=O)N(C)C(=O)[C@@H]3[C@](Cc3ccccc3)(C1=O)N2C(=O)c1ccc(Br)cc1", "Potency": "inconclusive: 35.5 µM [inhibitor, full curve, poor fit]"},
      {"smiles": "Cc1ccc(N(Cc2ccccc2)C(=O)c2cc(S(=O)(=O)N3CCOCC3)ccc2C)cc1", "activity change, negative = inhibition": "inactive: -8.47%"},
      {"smiles": "O=C(COc1ccccc1/C=C\\c1[nH]c(=O)[nH]c(=O)c1[N+](=O)[O-])Nc1ccccc1", "Potency": "inconclusive: 44.7 µM [inhibitor, partial curve, poor fit]"},
      {"smiles": "CCN1CCN(S(=O)(=O)c2ccc3ccccc3c2)CC1", "Potency": "inconclusive: 1.26 µM [inhibitor, full curve, poor fit]"},
      {"smiles": "CCOc1ccc2nc(NCCCNS(=O)(=O)c3ccccc3)c(C#N)cc2c1", "Potency": "inconclusive: 126 µM [inhibitor, partial curve, poor fit]"},
      {"smiles": "CC1CCCCN1C(=O)c1ccc(C(=O)Nc2ccc(F)cc2)cc1", "note": "(stereo not given)", "activity change, negative = inhibition": "inactive: -0.536%"},
      {"smiles": "COc1ccccc1N1C(=O)CCC1(C)C(=O)NC1CCCC1", "note": "(stereo not given)", "Potency": "inconclusive: 3.98 µM [inhibitor, full curve, poor fit]"},
      {"smiles": "COc1cc(C2/C(=C(\\O)c3ccc4c(c3)CC(C)O4)C(=O)C(=O)N2c2nnc(C)s2)cc(OC)c1OC", "note": "(stereo not given)", "activity change, negative = inhibition": "inactive: -22.7%"},
      {"smiles": "COc1ccc(-c2cc(C(F)(F)F)n3ncc(-c4ccccc4)c3n2)cc1", "Potency": "inconclusive: 35.5 µM [inhibitor, single point]"},
      {"smiles": "O=S(=O)(Cc1ccccc1)C(Cl)(Cl)C(F)(F)C(F)(F)C(F)(F)C(F)F", "Potency": "inconclusive: 0.316 µM [inhibitor, full curve, poor fit]"},
      {"smiles": "Cc1oc(-c2cccs2)nc1C(=O)N1CCCCCC1", "activity change, negative = inhibition": "inactive: 10.6%"},
      {"smiles": "Cc1ccc(N/N=C/c2c(C)c(C#N)c(=O)n(C)c2O)cc1C", "activity change, negative = inhibition": "inactive: -21.6%"},
      {"smiles": "CCNc1ncc2ncc(=O)n(Cc3ccc(F)cc3)c2n1", "Potency": "inconclusive: 100 µM [inhibitor, partial curve, poor fit]"},
      {"smiles": "COc1cc(/C=C2\\SC(=S)N(C(Cc3ccccc3)C(=O)O)C2=O)ccc1O", "note": "(stereo not given)", "activity change, negative = inhibition": "inactive: 151%"},
      {"smiles": "N/C(=C\\C(=O)c1cc(Cl)ccc1O)C(Cl)(Cl)Cl", "Potency": "inconclusive: 100 µM [inhibitor, single point]"},
      {"smiles": "Cc1cc2oc(=O)cc(CN3CCCCC3C)c2cc1C(C)C", "note": "(stereo not given)", "Potency": "inconclusive: 44.7 µM [inhibitor, partial curve, poor fit]"},
      {"smiles": "CC(C)(O)[C@@H]1CC[C@@](C)(C2CC[C@]3(C)C2[C@H](O)CC2[C@@]4(C)CC[C@H](O)C(C)(C)C4[C@@H](O[C@H]4O[C@@H](CO)[C@H](O)[C@@H](O)[C@@H]4O[C@@H]4O[C@H](CO)[C@@H](O)[C@H](O)[C@H]4O)C[C@]23C)O1", "note": "(stereo in doubt)", "Potency": "inconclusive: 100 µM [inhibitor, single point]"}
    ]}
  ]
}
